{"source": "patent US5132111A", "about": "(priority 1990, dated 1992)", "note": "Part of at least one peptide drawing is inferred or uncertain, most often the ends. Non-standard residues stand in square brackets, D forms with d. Residues, ends and D or L forms follow the SMILES beside them. No end group written: not given here. hArg = N=C(N)NCCCC[C@H](N)C(=O)O; αMeL = CC(C)C[C@](C)(N)C(=O)O; Aib = CC(C)(N)C(=O)O", "data": [{"test_system": "cultured rat pituitary cells", "format": "cell-based", "values": [{"compound": "CC[C@H](C)[C@H](NC(=O)[C@H](CC(=O)O)NC(=O)[C@H](CC(C)C)NC(=O)[C@H](CC(C)C)NC(=O)[C@H](CCCNC(=N)N)NC(=O)[C@H](CCCNC(=N)N)NC(=O)[C@H](CC(N)=O)NC(=O)[C@](C)(CC(C)C)NC(=O)[C@H](Cc1c[nH]cn1)NC(=O)[C@H](C)NC(=O)[C@H](CCC(N)=O)NC(=O)[C@H](CCC(N)=O)NC(=O)[C@H](C)NC(=O)[C@H](CC(C)C)NC(=O)[C@H](CCC(N)=O)NC(=O)[C@H](CC(=O)O)NC(=O)[C@H](C)NC(=O)[C@H](CCCNC(=N)N)NC(=O)[C@@H](NC(=O)[C@H](CCSC)NC(=O)[C@H](CCC(=O)O)NC(=O)[C@H](CC(C)C)NC(=O)[C@@H](NC(=O)[C@H](CCC(=O)O)NC(=O)[C@H](CCCNC(=N)N)NC(=O)[C@H](CC(C)C)NC(=O)[C@H](CC(C)C)NC(=O)[C@H](Cc1c[nH]cn1)NC(=O)[C@H](Cc1ccccc1)NC(=O)[C@@H](NC(=O)[C@H](CC(C)C)NC(=O)[C@H](CC(=O)O)NC(=O)[C@H](CC(C)C)NC(=O)[C@H](CO)NC(=O)[C@@H](NC(=O)[C@@H]1CCCN1C(=O)[C@@H]1CCCN1C(=O)[C@H](N)Cc1ccc(O)cc1)[C@@H](C)CC)[C@@H](C)O)C(C)C)[C@@H](C)O)C(=O)N[C@@H](C)C(N)=O", "note": "[[D-Tyr^3, Arg^23,36, CML^33]-oCRF(3-41)] (H-[dY]PPISLDLTFHLLREVLEMTRADQLAQQAH[αMeL]NRRLLDIA-NH2)", "secretion of ACTH": "stimulates", "secretion of β-endorphin (β-END-LI)": "stimulates"}, {"compound": "EGPPISIDLSLELLRRMIEARRQEREREQAANNRLLLDII-NH2", "secretion of ACTH": "stimulates", "secretion of β-endorphin (β-END-LI)": "stimulates"}, {"compound": "SQEPPISLD[αMeL]TFHL[αMeL]REMLEM[Aib]RAEQ[αMeL]AEQA[Aib]LNRL[αMeL]LEE[Aib]-NH2 [[CML^10,15,27,37,CMA^22,32,41]-AAHC]", "secretion of ACTH": "stimulates", "secretion of β-endorphin (β-END-LI)": "stimulates"}, {"compound": "SQEPPISLD[αMeL]TFH[αMeL]LREM[αMeL]EMARAEQ[αMeL]AEQAA[αMeL]NR[hArg]L[αMeL]EEA-NH2 [[CML^10,14,19,27,33,38, Har^36]-AAHC]", "secretion of ACTH": "stimulates", "secretion of β-endorphin (β-END-LI)": "stimulates"}]}]}
